Drawing on publication PMC11032371, this text covers binding for 1 molecule.

The chains behind the UniProt entries cited, without tags or fusion partners. Where a name states a change or a piece, a line headed by the entry shows the natural chain unless it says otherwise.
UniProt P01375: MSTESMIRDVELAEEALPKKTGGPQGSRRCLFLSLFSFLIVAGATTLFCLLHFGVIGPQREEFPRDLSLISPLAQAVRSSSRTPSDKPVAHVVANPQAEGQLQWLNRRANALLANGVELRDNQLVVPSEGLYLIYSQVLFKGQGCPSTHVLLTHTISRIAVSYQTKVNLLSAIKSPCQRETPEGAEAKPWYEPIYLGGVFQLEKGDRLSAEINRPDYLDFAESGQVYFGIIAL

For this experiment, the target named is HS-TNFα (human) (UniProt P01375). The experiment in a line: pull-down; N4BP1+/+ MEFs stimulated with HS-TNFα (1 μg/ml, 5 min); TNFα-bound signalling complex (TNFR1-SC) pulled down from the lysate with Strep-tactin resin; Western blot; only the target purified. (In general: Immunoblotting shows a protein as a band on a membrane.)

Results are given in words; binding and its absence hold for the method and conditions named. In cells and extracts the contact can be indirect. A result given as binding can be weak or reduced; the word gives no strength.

B1: endogenous mouse N4BP1 (protein, UniProt Q6A037 1-893)
chain: MAARVVLDEFTAPAEKAALLERSRGRIEALFGVGLAVLGALGAEEPLPARIWLQLRGAQEAVHSAKEYIKGICEPELEEKECYPKAMHCIFVGAQSLFLKSLIQDTCADLCVLDTGLLGIRGSAEAVVMARSHIQQFVKLFESNENLPSNQRESEIKREFRQFVEAHADSYTMDLLILPTSLKKELLSLTQGEESLFETDDDVITVGDVRPPEYTQSAATGPSSARDEVVVQEDSRNKARTPVSELTKHMDTVFSSSPDVLFVPVNGLSPDEDALSKDRVCHKRRSSDTEERHTKKQFSLENVPEGELLPDGKGSAGNEVIDLSDPASNSTNLSPDGKDTTEEMEYNILVNFFKTMGYSQEIVEKVIREYGPSTEPLLLLEEIEKENKRLQEDRDFPPCTVYPDASQSRNAGVGSTTNELTADSTPKKAQSHTEQSMVERFSQLPFKDSKHCTSNCKVNSFRTVPVGQKQEIWGSKQNSSCTVDLETDGHSASAASASPKDISFVSRGASGHQQRNPAFPENGFQQQTEPLLPNNTKPACEKRSGSCSSPQPKPNYPPLSPPLPLPQLLPSVTEARLGGSSDHIDSSVTGVQRFRDTLKIPYKLELKNEPGRADLKHIVIDGSNVAITHGLKKFFSCRGIAIAVEYFWKLGNRNITVFVPQWRTRRDPNITEQHFLTQLQELGILSLTPARMVFGERIASHDDRFLLHLADKTGGIIVTNDNFREFVTESVSWREIITKRLLQYTFVGDIFMVPDDPLGRNGPRLEEFLRKEAFLRHMQPLLNALPSVGTFDPGFRSPSTQVANNSHQPPPRIQTSSSPWLPQQSHFTALATLPSMQQNPPLPAQRSSAETSELREALLKIFPDSEQKLKIDQILAAHPYMKDLNALSALVLD
Regarding B1, the binding entry is given as “binds”.
